{
  "source": "patent US6110955A",
  "about": "“Metabolically stabilized oxyalkylene esters and uses thereof” (Beacon Laboratories, Inc., priority 1997, dated 2000)",
  "origin": "cited, not measured here",
  "system": "mitochondrial β-oxidation of fatty acids",
  "settings": "cited from earlier work",
  "data": [
    {"smiles": "CCCCc1oc2ccccc2c1C(=O)c1cc(I)c(OCCN(CC)CC)c(I)c1", "note": "[aminodarone]", "values": [
      {"measurement": "mitochondrial β-oxidation of fatty acids", "value": "decrease mitochondrial β-oxidation of fatty acids"}
    ]}
  ]
}
